Data source: PubChem BioAssay AID1508597 (Cure First, 2020)

Screen: 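Knock-downs altering ovarian cancer cell survival with or without PARP inhibitor rucaparib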 (primary screen)
Cells: human ovarian carcinoma lines grown from tumours: OCI-P5x (papillary serous) and OCI-C5x (clear cell)
Knock-down reagent: siRNA pool against human genes, 1.25 pmol siRNA per well
Timing: 72 h or 96 h, depending on the cell culture
Treatment: rucaparib 20 µM (about IC30) or vehicle, present until read-out
Rucaparib or vehicle: Rucaparib
Cell line: OCI-C5x (clear cell)
Read-out: 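ATP luminescence measured at 72 or 96 h according to the culture, then normalised and expressed as percent viability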
Reading the numbers: viability, normalised: higher = more viable cells remaining
Rule for the call: 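Active when normalised viability falls below 80 percent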
Calls: active = viability under 80%; inactive = viability 80% or more
This is a random part of the about 2,100 reagents, under one of the conditions tested. 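Calls flag viability under 80% in either arm, not effects specific to rucaparib; the reference for percent is not stated.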 A reagent listed more than once was tested more than once; the source does not tell the runs apart. No sequences are given here. The record does not give: the 100% reference.

The opening 3 records, ahead of the listing:
DPY30, technical replicate 1 | viability, normalised (%) = 65.8; Outcome = active
DPY30, technical replicate 2 | viability, normalised (%) = 54.2; Outcome = active
DPY30, technical replicate 3 | viability, normalised (%) = 55.3; Outcome = active

Main list, repeating the preview:
DPY30, technical replicate 1 | viability, normalised (%) = 65.8; Outcome = active
DPY30, technical replicate 2 | viability, normalised (%) = 54.2; Outcome = active
DPY30, technical replicate 3 | viability, normalised (%) = 55.3; Outcome = active
S100A6, technical replicate 1 | viability, normalised (%) = 40.8; Outcome = active
S100A6, technical replicate 2 | viability, normalised (%) = 44.5; Outcome = active
S100A6, technical replicate 3 | viability, normalised (%) = 37.3; Outcome = active
ABCC1, technical replicate 1 | viability, normalised (%) = 50; Outcome = active
ABCC1, technical replicate 2 | viability, normalised (%) = 39.5; Outcome = active
ABCC1, technical replicate 3 | viability, normalised (%) = 52.2; Outcome = active
NCOA5, technical replicate 1 | viability, normalised (%) = 65.2; Outcome = active
NCOA5, technical replicate 2 | viability, normalised (%) = 53.6; Outcome = active
NCOA5, technical replicate 3 | viability, normalised (%) = 68.6; Outcome = active
MARK3, technical replicate 1 | viability, normalised (%) = 49.8; Outcome = active
MARK3, technical replicate 2 | viability, normalised (%) = 69; Outcome = active
MARK3, technical replicate 3 | viability, normalised (%) = 51.1; Outcome = active
PKLR, technical replicate 1 | viability, normalised (%) = 65.3; Outcome = active
PKLR, technical replicate 2 | viability, normalised (%) = 46.2; Outcome = active
PKLR, technical replicate 3 | viability, normalised (%) = 66.5; Outcome = active
KAT6B, technical replicate 1 | viability, normalised (%) = 30.6; Outcome = active
KAT6B, technical replicate 2 | viability, normalised (%) = 33.7; Outcome = active
KAT6B, technical replicate 3 | viability, normalised (%) = 34.2; Outcome = active
PAPSS1, technical replicate 1 | viability, normalised (%) = 40.9; Outcome = active
PAPSS1, technical replicate 2 | viability, normalised (%) = 51.1; Outcome = active
PAPSS1, technical replicate 3 | viability, normalised (%) = 63.4; Outcome = active
HAUS7, technical replicate 1 | viability, normalised (%) = 38.5; Outcome = active
HAUS7, technical replicate 2 | viability, normalised (%) = 38.1; Outcome = active
HAUS7, technical replicate 3 | viability, normalised (%) = 41.7; Outcome = active
DDX17, technical replicate 1 | viability, normalised (%) = 73; Outcome = active
DDX17, technical replicate 1 | viability, normalised (%) = 70.1; Outcome = active
DDX17, technical replicate 2 | viability, normalised (%) = 44.4; Outcome = active
DDX17, technical replicate 2 | viability, normalised (%) = 52.7; Outcome = active
DDX17, technical replicate 3 | viability, normalised (%) = 46.6; Outcome = active
DDX17, technical replicate 3 | viability, normalised (%) = 62.6; Outcome = active
